{"source": "the supplement of paper PMC8728848", "binders": {"B1": {"name": "AT3G44510(29) (Arabidopsis thaliana), F4J341 (protein)", "chain": "MEEHLQGRIKLHDGRYLAYKERGVPKDDAKFTIVLVHGFGSSKDMNFNVSQELVNEIGIYFVLYDRAGYGESDPNPKRSLKSEAYDVQELADGLEIGSRFYLIGISMGSYTVWSCLKHIPQRLAGVAMVAPVVNFRWPSIPKSLMPKDYRREVAKWSVWIANYFPGLLQWLVTQNMFSTTSMLEKNPVYFNDQDIEVLKHIKGFPMLTKEKLRERGVFGTLRSDFLVAFGDWDFDPADLPDPSLSGPEKGSSSVHIWQGYEDKVMPFQLQRCLCRKLPWIRYHEVPKGGHLIVHYDGICDAILKSLLLGEDLPMYKPKAVITEPA"}}, "assay_in_all_cases": "glycan array binding signal (z-score within array); higher = stronger binding", "conditions_in_all_cases": "glycan notation: IUPAC condensed, linker removed", "key": {"[1]": {"target": "Fuc(a1-2)[GalNAc(b1-3)]Gal", "method_in_brief": "(§1)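 From the Consortium for Functional Glycomics database, 3228 arrays were curated, keeping only those whose protein sequence was available. Binding is given as a within-array Z-score averaged across arrays sharing a protein sequence and across linkers. Negative Z-scores can be read as non-binding.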"}, "Fuc(a1-3)GlcNAc": {"target": "Fuc(a1-3)GlcNAc", "method_in_brief": "as §1"}, "[2]": {"target": "Fuc(a1-3)[Gal(b1-4)]Glc6S", "method_in_brief": "as §1"}, "[3]": {"target": "Fuc(a1-3)[Gal(b1-4)]GlcNAc", "method_in_brief": "as §1"}, "[4]": {"target": "Fuc(a1-3)[Gal(b1-4)]GlcNAc(b1-2)Man", "method_in_brief": "as §1"}, "[5]": {"target": "Fuc(a1-3)[Gal(b1-4)]GlcNAc(b1-2)Man(a1-3)[Fuc(a1-3)[Gal(b1-4)]GlcNAc(b1-2)Man(a1-6)]Man(b1-4)GlcNAc(b1-4)GlcNAc", "method_in_brief": "as §1"}, "[6]": {"target": "Fuc(a1-3)[Gal(b1-4)]GlcNAc(b1-2)Man(a1-3)[Fuc(a1-3)[Gal(b1-4)]GlcNAc(b1-2)Man(a1-6)]Man(b1-4)GlcNAc(b1-4)[Fuc(a1-6)]GlcNAc", "method_in_brief": "as §1"}, "[7]": {"target": "Fuc(a1-3)[Gal(b1-4)]GlcNAc(b1-3)Gal(b1-3)[Fuc(a1-4)]GlcNAc", "method_in_brief": "as §1"}, "[8]": {"target": "Fuc(a1-3)[Gal(b1-4)]GlcNAc(b1-3)Gal(b1-4)[Fuc(a1-3)]GlcNAc", "method_in_brief": "as §1"}, "[9]": {"target": "Fuc(a1-3)[Gal(b1-4)]GlcNAc(b1-3)Gal(b1-4)[Fuc(a1-3)]GlcNAc(b1-3)Gal(b1-4)[Fuc(a1-3)]GlcNAc", "method_in_brief": "as §1"}, "[10]": {"target": "Fuc(a1-3)[Gal(b1-4)]GlcNAc(b1-3)GalNAc", "method_in_brief": "as §1"}, "[11]": {"target": "Fuc(a1-3)[Gal(b1-4)]GlcNAc(b1-6)GalNAc", "method_in_brief": "as §1"}, "[12]": {"target": "Fuc(a1-3)[Gal(b1-4)]GlcNAc(b1-6)[Gal(b1-3)GlcNAc(b1-3)]Gal(b1-4)Glc", "method_in_brief": "as §1"}, "[13]": {"target": "Fuc(a1-3)[Gal(b1-4)]GlcNAc6S", "method_in_brief": "as §1"}, "[14]": {"target": "Fuc(a1-3)[Gal3S(b1-4)]Glc", "method_in_brief": "as §1"}, "[15]": {"target": "Fuc(a1-3)[Gal3S(b1-4)]GlcNAc", "method_in_brief": "as §1"}, "[16]": {"target": "Fuc(a1-3)[Gal3S(b1-4)]GlcNAc6S", "method_in_brief": "as §1"}, "[17]": {"target": "Fuc(a1-3)[GalNAc(b1-4)]GlcNAc", "method_in_brief": "as §1"}, "[18]": {"target": "Fuc(a1-3)[GalNAc(b1-4)]GlcNAc6S", "method_in_brief": "as §1"}, "Fuc(a1-4)GlcNAc": {"target": "Fuc(a1-4)GlcNAc", "method_in_brief": "as §1"}, "Fuc(b1-3)GlcNAc": {"target": "Fuc(b1-3)GlcNAc", "method_in_brief": "as §1"}, "Gal(a1-2)Gal": {"target": "Gal(a1-2)Gal", "method_in_brief": "as §1"}, "Gal(a1-3)Gal": {"target": "Gal(a1-3)Gal", "method_in_brief": "as §1"}, "Gal(a1-3)Gal(b1-3)GlcNAc": {"target": "Gal(a1-3)Gal(b1-3)GlcNAc", "method_in_brief": "as §1"}, "[19]": {"target": "Gal(a1-3)Gal(b1-3)GlcNAc(b1-2)Man", "method_in_brief": "as §1"}, "[20]": {"target": "Gal(a1-3)Gal(b1-3)GlcNAc(b1-2)Man(a1-3)[Gal(a1-3)Gal(b1-3)GlcNAc(b1-2)Man(a1-6)]Man(b1-4)GlcNAc(b1-4)GlcNAc", "method_in_brief": "as §1"}, "[21]": {"target": "Gal(a1-3)Gal(b1-3)GlcNAc(b1-3)GalNAc", "method_in_brief": "as §1"}, "[22]": {"target": "Gal(a1-3)Gal(b1-3)GlcNAc(b1-6)GalNAc", "method_in_brief": "as §1"}, "[23]": {"target": "Gal(a1-3)Gal(b1-3)[Fuc(a1-4)]GlcNAc(b1-2)Man(a1-3)[Gal(a1-3)Gal(b1-3)[Fuc(a1-4)]GlcNAc(b1-2)Man(a1-6)]Man(b1-4)GlcNAc(b1-4)GlcNAc", "method_in_brief": "as §1"}, "Gal(a1-3)Gal(b1-4)Glc": {"target": "Gal(a1-3)Gal(b1-4)Glc", "method_in_brief": "as §1"}, "Gal(a1-3)Gal(b1-4)GlcNAc": {"target": "Gal(a1-3)Gal(b1-4)GlcNAc", "method_in_brief": "as §1"}, "[24]": {"target": "Gal(a1-3)Gal(b1-4)GlcNAc(b1-2)Man", "method_in_brief": "as §1"}, "[25]": {"target": "Gal(a1-3)Gal(b1-4)GlcNAc(b1-2)Man(a1-3)[Gal(a1-3)Gal(b1-4)GlcNAc(b1-2)Man(a1-6)]Man(b1-4)GlcNAc(b1-4)GlcNAc", "method_in_brief": "as §1"}, "[26]": {"target": "Gal(a1-3)Gal(b1-4)GlcNAc(b1-3)GalNAc", "method_in_brief": "as §1"}, "[27]": {"target": "Gal(a1-3)Gal(b1-4)GlcNAc(b1-6)GalNAc", "method_in_brief": "as §1"}, "[28]": {"target": "Gal(a1-3)Gal(b1-4)[Fuc(a1-3)]GlcNAc", "method_in_brief": "as §1"}, "[29]": {"target": "Gal(a1-3)Gal(b1-4)[Fuc(a1-3)]GlcNAc(b1-2)Man(a1-3)[Gal(a1-3)Gal(b1-4)[Fuc(a1-3)]GlcNAc(b1-2)Man(a1-6)]Man(b1-4)GlcNAc(b1-4)GlcNAc", "method_in_brief": "as §1"}}, "note": "The other results are listed elsewhere or left out.", "data": [{"binder": "B1", "values": [{"measurement": "glycan array binding signal (z-score)", "setting": "[1]", "result": -0.246}, {"measurement": "glycan array binding signal (z-score)", "setting": "Fuc(a1-3)GlcNAc", "result": -0.34}, {"measurement": "glycan array binding signal (z-score)", "setting": "[2]", "result": -0.61}, {"measurement": "glycan array binding signal (z-score)", "setting": "[3]", "result": -0.611}, {"measurement": "glycan array binding signal (z-score)", "setting": "[4]", "result": 0.643}, {"measurement": "glycan array binding signal (z-score)", "setting": "[5]", "result": -0.532}, {"measurement": "glycan array binding signal (z-score)", "setting": "[6]", "result": -0.197}, {"measurement": "glycan array binding signal (z-score)", "setting": "[7]", "result": 0.267}, {"measurement": "glycan array binding signal (z-score)", "setting": "[8]", "result": -0.232}, {"measurement": "glycan array binding signal (z-score)", "setting": "[9]", "result": 0.242}, {"measurement": "glycan array binding signal (z-score)", "setting": "[10]", "result": -0.416}, {"measurement": "glycan array binding signal (z-score)", "setting": "[11]", "result": -0.785}, {"measurement": "glycan array binding signal (z-score)", "setting": "[12]", "result": -0.697}, {"measurement": "glycan array binding signal (z-score)", "setting": "[13]", "result": -0.176}, {"measurement": "glycan array binding signal (z-score)", "setting": "[14]", "result": 0.074}, {"measurement": "glycan array binding signal (z-score)", "setting": "[15]", "result": -0.165}, {"measurement": "glycan array binding signal (z-score)", "setting": "[16]", "result": -0.612}, {"measurement": "glycan array binding signal (z-score)", "setting": "[17]", "result": -0.122}, {"measurement": "glycan array binding signal (z-score)", "setting": "[18]", "result": -0.561}, {"measurement": "glycan array binding signal (z-score)", "setting": "Fuc(a1-4)GlcNAc", "result": 0.816}, {"measurement": "glycan array binding signal (z-score)", "setting": "Fuc(b1-3)GlcNAc", "result": -0.537}, {"measurement": "glycan array binding signal (z-score)", "setting": "Gal(a1-2)Gal", "result": -0.084}, {"measurement": "glycan array binding signal (z-score)", "setting": "Gal(a1-3)Gal", "result": -0.649}, {"measurement": "glycan array binding signal (z-score)", "setting": "Gal(a1-3)Gal(b1-3)GlcNAc", "result": -0.707}, {"measurement": "glycan array binding signal (z-score)", "setting": "[19]", "result": -0.825}, {"measurement": "glycan array binding signal (z-score)", "setting": "[20]", "result": -0.399}, {"measurement": "glycan array binding signal (z-score)", "setting": "[21]", "result": -0.866}, {"measurement": "glycan array binding signal (z-score)", "setting": "[22]", "result": -0.135}, {"measurement": "glycan array binding signal (z-score)", "setting": "[23]", "result": 0.473}, {"measurement": "glycan array binding signal (z-score)", "setting": "Gal(a1-3)Gal(b1-4)Glc", "result": -0.538}, {"measurement": "glycan array binding signal (z-score)", "setting": "Gal(a1-3)Gal(b1-4)GlcNAc", "result": -0.608}, {"measurement": "glycan array binding signal (z-score)", "setting": "[24]", "result": -0.482}, {"measurement": "glycan array binding signal (z-score)", "setting": "[25]", "result": -0.112}, {"measurement": "glycan array binding signal (z-score)", "setting": "[26]", "result": -0.275}, {"measurement": "glycan array binding signal (z-score)", "setting": "[27]", "result": -0.911}, {"measurement": "glycan array binding signal (z-score)", "setting": "[28]", "result": 0.611}, {"measurement": "glycan array binding signal (z-score)", "setting": "[29]", "result": -0.647}]}]}
